Data reported in PubChem BioAssay AID248 (DTP/NCI, 2004).
The list does not hold the whole screen: it is rich in T/C values a quarter to a half above the control, in often repeated tests (any T/C) and in doses without a T/C. Further doses and runs are listed elsewhere. T/C: endpoint of the treated group in % of that of the vehicle group. Some doses have a count of surviving animals in place of a T/C: the source holds a T/C of zero for them, seemingly a mark for toxic or unscored doses. Some survivor counts are full or nearly so, which does not show that the dose was tolerated: survival well below the control is almost never listed, so the zero probably covers shortened survival too. Survivors were counted at the toxicity check, usually on the fifth day, unless a day is given; later deaths do not show. Schedule codes are those of the source, taken here to give the interval after Q, in days (D) or hours (H), and the number of doses after X. Some schedules carry Z or #; the key to these is not given. Where survival is the endpoint, this PubChem deposit counts one and a half times the control or more as active, and values a quarter to a half above the control carry no call in these data; other NCI protocols may use other cut-offs. Some T/C values are followed by the survivors on the day toxicity was checked, most often the fifth; without a count, all were alive then. Some entries were tested several times; the results are listed from low to high.

Test system: L1210 leukemia ip in BDF1 mice, survival T/C
Assay: NCI In Vivo Anticancer Drug Screen. Data for tumor model L1210 Leukemia (intraperitoneal) in B6D2F1 (BDF1) mice
Conditions: T/C endpoint: mean survival time, higher T/C = longer survival
[1] = dose: 200.0 mg/kg/injection, schedule: Q01DX009 (ip), vehicle: Klucel (hydroxypropylcellulose) (HPC)
[2] = dose: 400.0 mg/kg/injection, schedule: Q01DX009 (ip), vehicle: Klucel (hydroxypropylcellulose) (HPC)
[3] = dose: 100.0 mg/kg/injection, schedule: Q01DX001 (ip), vehicle: carboxymethylcellulose (CMC)
[4] = dose: 200.0 mg/kg/injection, schedule: Q01DX001 (ip), vehicle: carboxymethylcellulose (CMC)
[5] = dose: 400.0 mg/kg/injection, schedule: Q01DX001 (ip), vehicle: carboxymethylcellulose (CMC)
[6] = dose: 200.0 mg/kg/injection, schedule: Q01DX001 (ip), vehicle: saline
[7] = dose: 400.0 mg/kg/injection, schedule: Q01DX001 (ip), vehicle: saline
[8] = dose: 100.0 mg/kg/injection, schedule: Q01DX001 (ip), vehicle: saline
[9] = dose: 600.0 mg/kg/injection, schedule: Q01DX009 (ip), vehicle: water
[10] = dose: 400.0 mg/kg/injection, schedule: Q04DX003 (ip), vehicle: saline with Tween-80

Cc1cc(C)c(N(CC(=O)O)S(=O)(=O)c2ccccc2)c(C)c1I
survivor count (dose: 150.0 mg/kg/injection, schedule: Q04DX003 (ip), vehicle: Klucel (hydroxypropylcellulose) (HPC)): 6 of 6 | survivor count (dose: 300.0 mg/kg/injection, schedule: Q04DX003 (ip), vehicle: Klucel (hydroxypropylcellulose) (HPC)): 6 of 6

O=C1c2cccc3c([N+](=O)[O-])ccc(c23)C(=O)N1CCCN1CCOCC1
survivor count [1]: 4 of 6 | survivor count [2]: 2 of 6

O=C1C(=O)c2ccccc2C(O)=C1c1ccccc1
survivor count [3]: 1 of 4 | survivor count [4]: 0 of 4 | survivor count [5]: 0 of 4

O=C1CCC2CCC(CC2)O1
survivor count (dose: 40.0 mg/kg/injection, schedule: Q01DX001 (ip), vehicle: saline): 2 of 4 | survivor count (dose: 80.0 mg/kg/injection, schedule: Q01DX001 (ip), vehicle: saline): 0 of 4

CC1(C)N=C(N)N=C(N)N1c1cccc(/C=C/C=C/c2cccc([N+](=O)[O-])c2)c1
survivor count [6]: 0 of 4 | survivor count [7]: 0 of 4

CCN(CC)C(=O)c1cncc(-c2ccccc2)c1
survivor count (dose: 400.0 mg/kg/injection, schedule: Q01DX001 (ip), vehicle: Klucel (hydroxypropylcellulose) (HPC)): 2 of 6

CCC(=O)c1ccc(NC(N)=S)cc1
survivor count (dose: 320.0 mg/kg/injection, schedule: Q01DX005 (ip), vehicle: saline with Tween-80): 0 of 6

c1csc(CNCCN2CC2)c1
survivor count (dose: 5.0 mg/kg/injection, schedule: Q01DX009 (ip), vehicle: saline): 0 of 6 | survivor count (dose: 10.0 mg/kg/injection, schedule: Q01DX009 (ip), vehicle: saline): 0 of 6 | survivor count (dose: 10.0 mg/kg/injection, schedule: Q04DX003 (ip), vehicle: Klucel (hydroxypropylcellulose) (HPC)): 3 of 6 | survivor count (dose: 20.0 mg/kg/injection, schedule: Q04DX003 (ip), vehicle: Klucel (hydroxypropylcellulose) (HPC)): 0 of 6 | survivor count (dose: 40.0 mg/kg/injection, schedule: Q04DX003 (ip), vehicle: Klucel (hydroxypropylcellulose) (HPC)): 0 of 6 | survivor count (dose: 100.0 mg/kg/injection, schedule: Q04DX003 (ip), vehicle: Klucel (hydroxypropylcellulose) (HPC)): 0 of 6 | survivor count (dose: 200.0 mg/kg/injection, schedule: Q04DX003 (ip), vehicle: Klucel (hydroxypropylcellulose) (HPC)): 0 of 6 | survivor count (dose: 400.0 mg/kg/injection, schedule: Q04DX003 (ip), vehicle: Klucel (hydroxypropylcellulose) (HPC)): 0 of 6

CN(C)CC1(c2ccccc2)CC[N+](C)(C)C1 (stereo not drawn)
survivor count (dose: 300.0 mg/kg/injection, schedule: Q01DX001 (ip), vehicle: saline): 1 of 6

CN=C(c1ccc(NC(=O)c2cccc(C(=O)Nc3ccc(C(=NC)N(C)C)cc3)c2)cc1)N(C)C
survivor count (dose: 15.0 mg/kg/injection, schedule: Q01DX Z (ip), vehicle: saline): 0 of 6 | survivor count (dose: 30.0 mg/kg/injection, schedule: Q01DX Z (ip), vehicle: saline): 0 of 6 | survivor count (dose: 60.0 mg/kg/injection, schedule: Q01DX Z (ip), vehicle: saline): 0 of 6 | survivor count (dose: 120.0 mg/kg/injection, schedule: Q01DX Z (ip), vehicle: saline): 0 of 6

CSc1nncc(=O)[nH]1.[Hg]
survivor count (dose: 20.0 mg/kg/injection, schedule: Q01DX001 (ip), vehicle: carboxymethylcellulose (CMC)): 2 of 4 | survivor count (dose: 40.0 mg/kg/injection, schedule: Q01DX001 (ip), vehicle: carboxymethylcellulose (CMC)): 1 of 4 | survivor count (dose: 50.0 mg/kg/injection, schedule: Q01DX001 (ip), vehicle: carboxymethylcellulose (CMC)): 0 of 4 | survivor count (dose: 80.0 mg/kg/injection, schedule: Q01DX001 (ip), vehicle: carboxymethylcellulose (CMC)): 0 of 4 | survivor count [3]: 0 of 4 | survivor count [4]: 0 of 4 | survivor count [5]: 0 of 4

CCCCCC(C)n1c(C)cc(=O)n1C(C)CCCCC (stereo not drawn)
survivor count (dose: 300.0 mg/kg/injection, schedule: Q01DX001 (ip), vehicle: other): 0 of 6

NC(=S)N/N=C\c1ccccn1
T/C (dose: 5.3 mg/kg/injection, schedule: Q01DX009 (ip), vehicle: saline with Tween-80): 138 % of control | T/C (dose: 12.5 mg/kg/injection, schedule: Q01DX009 (ip), vehicle: saline with Tween-80): 136 % of control | survivor count (dose: 25.0 mg/kg/injection, schedule: Q01DX009 (ip), vehicle: saline with Tween-80): 4 of 6

CC1NC(=O)COC1c1ccccc1 (stereo not drawn)
survivor count [2]: 0 of 6

Cc1cc([N+](C)(C)C)cc(C)c1C#[N+][O-]
survivor count (dose: 50.0 mg/kg/injection, schedule: Q01DX001 (ip), vehicle: saline): 2 of 6 | survivor count [8]: 0 of 6 | survivor count [6]: 0 of 6 | survivor count [7]: 0 of 6

[N-]=[N+]=CC(=O)NCC(=O)NN=C(CO)CO
T/C (dose: 270.0 mg/kg/injection, schedule: Q01DX009 (ip), vehicle: water): 134 % of control | T/C (dose: 400.0 mg/kg/injection, schedule: Q01DX009 (ip), vehicle: water, evaluated on day 30): 131 % of control | T/C (dose: 400.0 mg/kg/injection, schedule: Q01DX009 (ip), vehicle: water, run until all animals had died): 128 % of control | T/C [9]: 148 % of control | survivor count [9]: 5 of 6 | T/C (dose: 900.0 mg/kg/injection, schedule: Q01DX009 (ip), vehicle: water): 131 % of control [4 of 6 alive]

Nc1nc(N)c2[nH]cnc2n1
survivor count (dose: 50.0 mg/kg/injection, schedule: Q01DX Z (ip), vehicle: carboxymethylcellulose (CMC)): 6 of 6 | survivor count (dose: 100.0 mg/kg/injection, schedule: Q01DX009 (ip), vehicle: Klucel (hydroxypropylcellulose) (HPC)): 6 of 6 | survivor count [1]: 5 of 6 | survivor count [2]: 1 of 6 | survivor count (dose: 800.0 mg/kg/injection, schedule: Q01DX009 (ip), vehicle: Klucel (hydroxypropylcellulose) (HPC)): 3 of 6

CCCCCCCCCCCCCCCCCCNC(=O)Cc1ccc(N(CCCl)CCCl)cc1
T/C [2]: 130 % of control

CC(NC(=S)SCc1ccccc1)C(=O)O (stereo not drawn)
survivor count [8]: 2 of 4 | survivor count [6]: 0 of 4 | survivor count [7]: 0 of 4

O=C(/C(=C\c1ccccc1)CN1CCOCC1)c1ccc(Br)cc1
survivor count [10]: 2 of 6

O=C(O)C1(Cl)CC2C=CC1C2 (stereo not drawn)
survivor count (dose: 400.0 mg/kg/injection, schedule: Q04DX003 (ip), vehicle: gum acacia): 3 of 6 | survivor count [10]: 5 of 6

Nc1nc2c(nc(NO)n2C2OC(CO)C(O)C2O)c(=O)[nH]1 (stereo not drawn)
survivor count [5]: 1 of 4

CCCCNC(C)(C)C1(c2ccc(Cl)cc2)SSC(c2ccc(Cl)cc2)(C(C)(C)NCCCC)SS1 (stereo not drawn)
survivor count [2]: 4 of 6

O=I(=O)c1ccccc1
survivor count (dose: 200.0 mg/kg/injection, schedule: Q04DX003 (ip), vehicle: saline with Tween-80): 3 of 6 | survivor count [10]: 0 of 6

CC[N+](CC)(CC)CCCC[N+](CC)(CC)CC
survivor count (dose: 100.0 mg/kg/injection, schedule: Q04DX003 (ip), vehicle: water): 3 of 6 | survivor count (dose: 200.0 mg/kg/injection, schedule: Q04DX003 (ip), vehicle: water): 0 of 6 | survivor count (dose: 400.0 mg/kg/injection, schedule: Q04DX003 (ip), vehicle: water): 0 of 6

O=C(O)CCNc1ccc(Cl)cc1[N+](=O)[O-]
survivor count (dose: 400.0 mg/kg/injection, schedule: Q04DX002 (ip), vehicle: Klucel (hydroxypropylcellulose) (HPC)): 0 of 3

CC1(C)CN1P(=O)(Oc1ccccc1)N1CC1(C)C (stereo not drawn)
T/C [3]: 126 % of control | T/C (dose: 133.0 mg/kg/injection, schedule: Q01DX001 (ip), vehicle: carboxymethylcellulose (CMC)): 134 % of control | T/C [4]: 132 and 142 % of control [5 of 6 alive] | survivor count (dose: 300.0 mg/kg/injection, schedule: Q01DX001 (ip), vehicle: carboxymethylcellulose (CMC)): 0 of 6 | survivor count [5]: 0 of 6
